Test results taken from article PMC8605320.
Results are given in words; binding and its absence hold for the method and conditions named. In cells and extracts the contact can be indirect. These calls come from enrichment with a bait or labelling near it, and not all partners need be listed. Sequences can lack the tags named with a protein.

Protein sequences, listed by entry. Tags and fused reporters are not part of them. Residues count along the entry.
UniProt Q9UKV5: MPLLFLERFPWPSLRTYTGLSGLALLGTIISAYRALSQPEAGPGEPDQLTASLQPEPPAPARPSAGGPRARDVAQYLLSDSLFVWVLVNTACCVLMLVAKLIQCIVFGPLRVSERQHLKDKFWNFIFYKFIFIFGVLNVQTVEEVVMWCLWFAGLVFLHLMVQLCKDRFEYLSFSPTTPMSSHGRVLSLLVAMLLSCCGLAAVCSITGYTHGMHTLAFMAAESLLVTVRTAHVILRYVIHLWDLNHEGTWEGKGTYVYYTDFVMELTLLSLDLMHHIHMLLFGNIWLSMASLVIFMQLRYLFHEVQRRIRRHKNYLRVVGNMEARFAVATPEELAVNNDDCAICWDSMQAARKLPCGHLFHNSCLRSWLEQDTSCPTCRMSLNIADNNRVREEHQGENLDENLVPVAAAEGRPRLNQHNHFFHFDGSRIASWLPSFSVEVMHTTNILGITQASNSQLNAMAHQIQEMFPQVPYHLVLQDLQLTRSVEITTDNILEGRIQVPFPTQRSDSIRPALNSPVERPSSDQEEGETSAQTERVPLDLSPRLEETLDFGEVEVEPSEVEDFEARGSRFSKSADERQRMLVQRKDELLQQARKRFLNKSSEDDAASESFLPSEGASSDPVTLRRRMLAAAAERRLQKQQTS
UniProt P27824, residues 21-592: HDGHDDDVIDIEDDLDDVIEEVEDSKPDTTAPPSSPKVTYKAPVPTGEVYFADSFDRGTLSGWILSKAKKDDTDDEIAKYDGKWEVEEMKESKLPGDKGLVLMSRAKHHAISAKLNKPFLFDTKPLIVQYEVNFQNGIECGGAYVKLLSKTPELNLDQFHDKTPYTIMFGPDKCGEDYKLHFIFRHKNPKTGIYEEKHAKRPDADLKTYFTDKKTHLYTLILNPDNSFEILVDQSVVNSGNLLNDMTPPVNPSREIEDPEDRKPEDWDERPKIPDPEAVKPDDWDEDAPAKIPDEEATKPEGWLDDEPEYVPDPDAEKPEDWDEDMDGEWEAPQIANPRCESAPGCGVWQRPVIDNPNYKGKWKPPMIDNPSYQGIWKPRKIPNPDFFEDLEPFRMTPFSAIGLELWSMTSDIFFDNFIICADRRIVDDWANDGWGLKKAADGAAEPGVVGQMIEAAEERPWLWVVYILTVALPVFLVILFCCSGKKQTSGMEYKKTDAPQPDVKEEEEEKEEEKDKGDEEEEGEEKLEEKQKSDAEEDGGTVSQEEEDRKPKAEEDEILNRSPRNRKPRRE
UniProt Q15388: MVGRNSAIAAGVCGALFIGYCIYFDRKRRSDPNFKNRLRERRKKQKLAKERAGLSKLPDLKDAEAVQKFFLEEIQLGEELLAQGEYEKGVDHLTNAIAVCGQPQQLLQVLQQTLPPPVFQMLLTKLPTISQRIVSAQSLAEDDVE

Target: T1, SPTLC2^FLAG (WT-SPTLC2 with C-terminal 3xFLAG), in Flp-In T-REx 293 SPTLC2-KO cells (human) (UniProt O15270)
T1 sequence: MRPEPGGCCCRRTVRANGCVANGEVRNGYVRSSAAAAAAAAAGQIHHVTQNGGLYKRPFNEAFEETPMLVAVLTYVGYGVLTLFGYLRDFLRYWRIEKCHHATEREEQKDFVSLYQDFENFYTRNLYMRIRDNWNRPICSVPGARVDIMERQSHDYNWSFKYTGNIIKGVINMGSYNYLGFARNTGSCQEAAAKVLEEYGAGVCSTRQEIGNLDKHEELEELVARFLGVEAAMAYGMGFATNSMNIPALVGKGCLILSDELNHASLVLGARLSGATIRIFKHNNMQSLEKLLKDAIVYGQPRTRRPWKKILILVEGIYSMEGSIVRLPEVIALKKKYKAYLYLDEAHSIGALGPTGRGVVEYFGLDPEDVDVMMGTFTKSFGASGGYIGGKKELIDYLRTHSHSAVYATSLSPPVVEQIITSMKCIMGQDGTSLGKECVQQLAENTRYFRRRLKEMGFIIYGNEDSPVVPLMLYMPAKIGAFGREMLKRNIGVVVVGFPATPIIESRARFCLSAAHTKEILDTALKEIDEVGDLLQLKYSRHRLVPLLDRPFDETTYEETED
Test: affinity purification with mass spectrometry; heavy membrane fractions of Flp-In T-REx 293 SPTLC2-KO cells with or without SPTLC2^FLAG, solubilised with digitonin (50 mM TRIS pH 7.4, 150 mM NaCl), anti-FLAG magnetic M2 beads 3 h, eluted with 100 mM glycine pH 2.5, mass spectrometry

binding, binds:
CLPB (human (endogenous in Flp-In T-REx 293))
AMFR (from UniProt Q9UKV5 1-643)
CANX (from UniProt P27824 21-592)
TOMM20 (from UniProt Q15388 1-145)
